From patent US20160257755A1 (TRACON PHARMACEUTICALS, published 2016)
Substitutions are numbered along the chain they refer to. Results are given in words; binding and its absence hold for the method and conditions named. Some binding calls cover weakened binding; strength is not graded here.

T1: human CD105 (endoglin), R&D Systems Cat. No. 1097-EN (human) (UniProt P17813)
T1 sequence (looked up): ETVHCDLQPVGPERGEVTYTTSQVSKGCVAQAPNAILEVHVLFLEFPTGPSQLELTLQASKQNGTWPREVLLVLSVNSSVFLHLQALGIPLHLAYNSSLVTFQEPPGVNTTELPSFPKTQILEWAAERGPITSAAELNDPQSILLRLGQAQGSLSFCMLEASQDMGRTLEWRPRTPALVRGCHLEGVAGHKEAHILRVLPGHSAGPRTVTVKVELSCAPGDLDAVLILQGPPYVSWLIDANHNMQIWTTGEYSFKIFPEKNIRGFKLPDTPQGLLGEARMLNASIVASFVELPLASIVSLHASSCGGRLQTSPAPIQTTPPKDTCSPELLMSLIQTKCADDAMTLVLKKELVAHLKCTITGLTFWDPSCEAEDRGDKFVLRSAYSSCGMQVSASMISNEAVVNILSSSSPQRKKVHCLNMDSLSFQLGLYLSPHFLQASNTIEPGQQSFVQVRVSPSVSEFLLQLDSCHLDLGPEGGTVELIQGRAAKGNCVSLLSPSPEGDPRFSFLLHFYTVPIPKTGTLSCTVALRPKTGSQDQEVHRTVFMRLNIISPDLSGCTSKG

B1: VK2AAVH1A2 (antibody, V domains shown)
VH: EVQLVESGGGLVKPGGSLRLSCAASGFTFSDAWMDWVRQAPGKGLEWVGEARSKASNHATYYAESVKGRFTISRDDSKNTLYLQMNSLKTEDTAVYYCTRWRRFFDSWGQGTLVTVSS
VL: DIQLTQSPSSLSASVGDRATITCRASSSVSYMHWYQQKPGKAPKPWAYATSNLASGVPSRFSGSGSGTDYTLTISSLQPEDFATYYCQQWSSNPLTFGGGTKVEIK
B2: VK2SAVH1A (antibody, V domains shown)
VH: B1 VH with G49A, A51I
VL: B1 VL with A19V, T22S

Target: T1, human CD105 (endoglin), R&D Systems Cat. No. 1097-EN (human)
Experiment: competition ELISA on captured human CD105 against biotinylated chimeric anti-CD105 (6.25 ng/ml); streptavidin-HRP/TMB, absorbance at 450 nm

Binder	binding
B1	binds
B2	binds
